{"source": "PubChem BioAssay AID1347076", "about": "(National Center for Advancing Translational Sciences (NCATS), 2019)", "note": "About 13,000 (3.2%) of roughly 400,000 compounds were called active. The inconclusive results got no clear call from the source; some entries with a clear call stand among them for comparison. Calls come from the whole dose curve; as a rule, active = well fitted cell-killing curve with a large enough effect; inconclusive = small, poorly fitted or top-dose-only effect, or effect the other way; inactive = flat fitted curve, though single readings scatter. A potency beside an inconclusive call is a rough fit, not a confirmed value. % is set by controls: 0 for no effect and ±100 for the full control effect; potency is the fitted concentration of half-maximal effect."}
{"assay": "qHTS assay for MDR1-selective chemotherapeutics: Primary screen using the drug-selected MDR subline cells KB-V1; note: nearly all actives have a fitted effect of over 60% in size", "details": "KB-V1 MDR cells viability, CellTiter-Glo, 72 h; activity change, negative = cytotoxicity: at 46.1 µM (top of the series)", "procedure,_shortened": "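Drug-selected KB-V1 cells, grown in DMEM lacking phenol red with 10% FBS, receive compound titrations; after three days at 37 degrees C, surviving cell ATP is quantified by CellTiter-Glo luminescence and responses normalized and curve-fitted.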"}
{"smiles": "COc1ccc(-c2noc(C(=O)NCc3ccccc3Cl)n2)cc1OC", "Potency": "inconclusive: 16.4 µM [cytotoxic, single point]"}
{"smiles": "CCn1c(=O)c(C(=O)CN2CCN(S(=O)(=O)c3cc(C)ccc3C)CC2)c(N)n(Cc2ccccc2)c1=O", "Potency": "inconclusive: 18.4 µM [cytotoxic, partial curve]"}
{"smiles": "CCC(c1ccccc1)C(CC)c1cc(O)c(O)c(O)c1", "note": "(stereo not drawn)", "Potency": "inconclusive: 29.1 µM [cytotoxic, single point]"}
{"smiles": "CN(C)CCCn1c(SCC(=O)Nc2nc(-c3cccc(Br)c3)cs2)nc2ccccc2c1=O", "Potency": "inconclusive: 18.4 µM [cytotoxic, single point]"}
{"smiles": "O=C(Cn1c(=O)n(Cc2ccco2)c(=O)c2c3c(sc21)CCCCC3)c1ccccc1", "Potency": "inconclusive: 10.3 µM [cytotoxic, partial curve, poor fit]"}
{"smiles": "CCOC(=O)Cn1nnnc1CN(Cc1ccc(OC)cc1)Cc1cc2cc(C)ccc2[nH]c1=O", "activity change, negative = cytotoxicity": "inactive: -28.8%"}
{"smiles": "COC(=O)c1[nH]c2cc(OC)ccc2c1NC(=O)CCN1CCSCC1", "activity change, negative = cytotoxicity": "inactive: -3.11%"}
{"smiles": "C/C(=N\\NC(=O)c1nn(C)c(C)c1Br)c1ccc(NC(=O)c2ccc(C)s2)cc1", "Potency": "inconclusive: 20.6 µM [rising, single point]"}
{"smiles": "O=c1[nH]c(C2CCN(S(=O)(=O)c3ccccc3)CC2)nc2c1nnn2Cc1c(F)cccc1Cl", "activity change, negative = cytotoxicity": "inactive: 10.9%"}
{"smiles": "COc1cccc2cc(C(=O)N3CCN(c4cc(C)ccc4C)CC3)c(=O)oc12", "Potency": "inconclusive: 8.2 µM [cytotoxic, partial curve]"}
{"smiles": "Cc1cc(NC(=O)c2cncc(Br)c2)ccc1NC(=O)c1cc2ccccc2o1", "Potency": "inconclusive: 29.1 µM [cytotoxic, single point]"}
{"smiles": "CCN1CCN(c2c(/C=C3\\SC(=S)N(Cc4ccco4)C3=O)c(C)c(C#N)c(=O)n2C)CC1", "Potency": "inconclusive: 6.51 µM [rising, partial curve]"}
{"smiles": "CCC(C(=O)NCc1cccnc1)n1nc(C)n2c(cc3occc32)c1=O", "note": "(stereo not drawn)", "Potency": "inconclusive: 5.17 µM [rising, full curve]"}
{"smiles": "CCN(Cc1ccncc1)S(=O)(=O)c1ccc(C(C)=O)cc1", "Potency": "inconclusive: 18.4 µM [cytotoxic, partial curve]"}
{"smiles": "CCCCN(CCCC)CC(O)COc1ccccc1Br", "note": "(stereo not drawn)", "Potency": "inconclusive: 23.1 µM [cytotoxic, partial curve]"}
{"smiles": "CCc1nnc(NC(=O)C23CC4CC(CC(C4)C2)C3)s1", "activity change, negative = cytotoxicity": "inactive: -5.6%"}
{"smiles": "O=C(N/N=C/c1ccc(F)cc1)c1cccc(NC(=O)c2ccccc2Cl)c1", "activity change, negative = cytotoxicity": "inactive: -3.54%"}
{"smiles": "CCOC(=O)C(/C(C)=N/NC(=O)c1ccccc1[N+](=O)[O-])C(C)C", "note": "(stereo not drawn)", "Potency": "inconclusive: 29.1 µM [rising, single point]"}
{"smiles": "[O-][n+]1c2ccccc2[n+]([O-])c2cc(O)ccc21", "activity change, negative = cytotoxicity": "inactive: -17.2%"}
{"smiles": "CC12CCC(=O)C=C1CCC1C3CC(O)C(O)(C(=O)CO)C3(C)CC(O)C12F", "note": "(stereo not drawn)", "activity change, negative = cytotoxicity": "inactive: 4.51%"}
{"smiles": "CCc1nn2c(NCCOC)cc(C)nc2c1-c1ccc(F)cc1", "Potency": "inconclusive: 7.31 µM [cytotoxic, partial curve]"}
{"smiles": "O=C(COc1ccccc1)Nc1cc(C(F)(F)F)ccc1N1CCCC1", "Potency": "inconclusive: 29.1 µM [cytotoxic, single point]"}
{"smiles": "COc1ccc(-c2ccc(NS(=O)(=O)c3ccc(NC(C)=O)cc3)cc2)nn1", "activity change, negative = cytotoxicity": "inactive: 12.3%"}
{"smiles": "CCN(CC)c1ccc(NC(=O)c2c(C)nn(-c3ccc(F)cc3)c2-n2cccc2)c(C)c1", "Potency": "active: 20.6 µM"}
{"smiles": "COc1ccc(CNC(=O)C2CCN(S(=O)(=O)c3cccnc3)CC2)cc1", "activity change, negative = cytotoxicity": "inactive: 16.9%"}
{"smiles": "O=C(CSc1nnc(-c2ccccn2)n1Cc1ccco1)c1ccc(-c2ccccc2)cc1", "Potency": "inconclusive: 23.1 µM [cytotoxic, partial curve]"}
{"smiles": "COc1cc(OC)cc(C(=O)NC(=S)Nc2ccc(Cl)c(C(=O)O)c2)c1", "activity change, negative = cytotoxicity": "inactive: 8.25%"}
{"smiles": "CCOc1ccccc1N1CC(C(=O)N(CC)CC(=O)Nc2ccc3c(c2)OCCO3)CC1=O", "note": "(stereo not drawn)", "activity change, negative = cytotoxicity": "inactive: 29.7%"}
{"smiles": "O=c1oc(=S)oc2c1[C@H](c1ccc(Cl)cc1)O[C@H](C1CCCC1)C2", "activity change, negative = cytotoxicity": "inactive: 26.2%"}
{"smiles": "CCc1ccccc1NC(=O)CN(C)S(=O)(=O)c1cccc2nsnc12", "activity change, negative = cytotoxicity": "inactive: -23%"}
{"smiles": "CN(C)c1ccc(/C=c2\\[nH]c(=O)/c(=C/c3ccc(N(C)C)cc3)[nH]c2=O)cc1", "activity change, negative = cytotoxicity": "inactive: 7.38%"}
{"smiles": "CC(=O)Nc1ccc(-c2ccnc3c2CC(C(=O)Nc2cccnc2)O3)cc1", "note": "(stereo not drawn)", "activity change, negative = cytotoxicity": "inactive: 4.67%"}
{"smiles": "Cc1ccc2c(c1)CCCN2CC(=O)Nc1cc(S(=O)(=O)N2CCCC2)ccc1Cl", "Potency": "inconclusive: 8.2 µM [cytotoxic, partial curve, poor fit]"}
{"smiles": "COc1ccc(-c2ccc3oc(-c4ccsc4)cc(=O)c3c2)cc1F", "Potency": "inconclusive: 29.1 µM [rising, single point]"}
{"smiles": "COc1ccc(C(=O)CC(=O)c2ccc(C(C)(C)C)cc2)cc1", "Potency": "inconclusive: 25.9 µM [cytotoxic, single point]"}
{"smiles": "O=C(c1c(O)cc(O)cc1O)C1c2c(cc(O)c3c2O[C@H](c2ccc(O)cc2)[C@@H](O)C3)OC1c1ccc(O)cc1", "note": "(stereo partly drawn)", "Potency": "inconclusive: 23.1 µM [rising, partial curve, poor fit]"}
{"smiles": "Cc1ccsc1/C=N/NC(=O)c1ccc(-n2cccc2)cc1", "Potency": "inconclusive: 23.1 µM [cytotoxic, partial curve, poor fit]"}
{"smiles": "OC(CSc1ccccc1Cl)CN1CCN(c2ccccc2F)CC1", "note": "(stereo not drawn)", "activity change, negative = cytotoxicity": "inactive: -16.1%"}
{"smiles": "COc1ccc(C(=O)NN/C=C/C(=O)c2ccc(Br)cc2)cc1", "activity change, negative = cytotoxicity": "inactive: -19.9%"}
{"smiles": "O=C(Nc1ccc(Cl)cc1)c1cnn2c1NC(c1ccccc1)=CC2c1ccccc1", "note": "(stereo not drawn)", "Potency": "inconclusive: 20.6 µM [cytotoxic, single point]"}
{"smiles": "COc1cccc(C(=O)NNC(=O)c2ccc3ccccc3c2O)c1", "Potency": "inconclusive: 29.1 µM [cytotoxic, single point]"}
{"smiles": "COc1nc(N2CCOCC2)nc(-n2cccc2)n1", "Potency": "inconclusive: 16.4 µM [cytotoxic, single point]"}
{"smiles": "O=C(Nc1ccccc1)c1ccc(NCCN2C(=O)CCC2=O)c([N+](=O)[O-])c1", "activity change, negative = cytotoxicity": "inactive: -21.3%"}
{"smiles": "CCOc1ccccc1N(CC(=O)NCCSc1ccccn1)S(=O)(=O)c1ccccc1", "Potency": "inconclusive: 4.11 µM [cytotoxic, full curve]"}
{"smiles": "NNc1ccc([N+](=O)[O-])c2[nH][nH]c(=O)c12", "activity change, negative = cytotoxicity": "inactive: 14.4%"}
{"smiles": "Oc1c(N=NC(=S)Nc2ccccc2F)c2ccccc2n1Cc1ccc(Cl)cc1", "Potency": "inconclusive: 3.26 µM [cytotoxic, full curve]"}
{"smiles": "C/C(=N/NC(=O)c1ccncc1)c1ccccc1", "Potency": "inconclusive: 14.6 µM [rising, single point]"}
{"smiles": "CC(C)(C(=O)c1ccccc1)/[N+]([O-])=C/c1ccc(Br)cc1", "Potency": "inconclusive: 29.1 µM [cytotoxic, single point]"}
{"smiles": "CC(C)Cn1c(=S)[nH]c2ccccc2c1=O", "Potency": "inconclusive: 20.6 µM [rising, single point]"}
{"smiles": "CCOC(=O)C1(Cc2cccc(Cl)c2)CCCN(C(=O)c2ccc(COC)s2)C1", "note": "(stereo not drawn)", "Potency": "inconclusive: 6.51 µM [cytotoxic, partial curve]"}
{"smiles": "O=C1C(N2CCOCC2)=C(n2nnc3ccccc32)C(=O)c2ccccc21", "Potency": "active: 4.11 µM"}
{"smiles": "FC(F)(F)c1nnc(-c2ccccc2)nc1N1CCOCC1", "Potency": "inconclusive: 16.4 µM [cytotoxic, partial curve]"}
{"smiles": "Cc1cnc(C(=O)OC(C(=O)c2c[nH]c3ccccc23)c2ccccc2)cn1", "note": "(stereo not drawn)", "activity change, negative = cytotoxicity": "inactive: 0.359%"}
{"smiles": "O=C(CCN1C(=O)COc2ccccc21)NCCCN1CCCC1", "Potency": "inconclusive: 0.517 µM [cytotoxic, full curve]"}
{"smiles": "CCN(CC)c1cc(C)c2cc(NC(=O)c3ccc(OC)c(OC)c3)ccc2n1", "activity change, negative = cytotoxicity": "inactive: -8.66%"}
{"smiles": "CC1CCN(C(=O)Cn2c(=O)n(Cc3ccc4c(c3)OCO4)c(=O)c3ccccc32)CC1", "Potency": "inconclusive: 9.2 µM [cytotoxic, partial curve]"}
{"smiles": "COc1ccc(-c2cc(C)no2)cc1S(=O)(=O)N1CCN(c2cccc(C)c2)C(C)C1", "note": "(stereo not drawn)", "Potency": "inconclusive: 18.4 µM [cytotoxic, partial curve, poor fit]"}
{"smiles": "Cc1ccccc1NC(=O)NCCc1c[nH]c2ccccc12", "Potency": "inconclusive: 29.1 µM [cytotoxic, single point]"}
{"smiles": "CCOc1cc(/C=N/NC(=O)c2nn(C)cc2Br)ccc1OCc1ccccc1Cl", "Potency": "inconclusive: 20.6 µM [cytotoxic, partial curve, poor fit]"}
{"smiles": "COc1cccc(N2CCN(C(=O)c3cnc4c(-c5ccccc5)c(C)nn4c3C)CC2)c1", "activity change, negative = cytotoxicity": "inactive: -8.29%"}
{"smiles": "c1ccc2oc(SCc3cn4ccccc4n3)nc2c1", "Potency": "inconclusive: 18.4 µM [cytotoxic, single point]"}
{"smiles": "CC(C)Cc1nnc(NC(=O)CCC(=O)NC2CCCCC2)s1", "activity change, negative = cytotoxicity": "inactive: -5.07%"}
{"smiles": "COC(=O)c1sccc1NC(=O)Cc1ccc(OC)cc1", "Potency": "inconclusive: 23.1 µM [cytotoxic, single point]"}
{"smiles": "O=C(CN1C(=O)NC2(CCCC2)C1=O)Nc1cccc(-c2nnc3n2CCCCC3)c1", "Potency": "inconclusive: 11.6 µM [rising, partial curve, poor fit]"}
{"smiles": "CCc1ccc(CN2CCC(n3nccc3NC(=O)c3cccc(F)c3)CC2)cc1", "Potency": "inconclusive: 9.2 µM [cytotoxic, partial curve, poor fit]"}
{"smiles": "COc1cccc(C(NC(C)=O)c2nc(-c3cccc(O)c3)cs2)c1", "note": "(stereo not drawn)", "Potency": "inconclusive: 25.9 µM [cytotoxic, single point]"}
{"smiles": "COc1cc(/C=C/C(=O)NNC(=O)c2cccc(S(=O)(=O)N(C)C)c2)cc(OC)c1OC", "Potency": "inconclusive: 4.11 µM [rising, full curve, poor fit]"}
{"smiles": "COC(=O)[C@@]12C[C@@H](CC(=O)NCC3CCCCC3)C(=O)N(CCc3ccc(OC)c(OC)c3)C1=CCC(C)(C)C2", "Potency": "inconclusive: 14.6 µM [cytotoxic, partial curve]"}
